Assay results reported in PubChem BioAssay AID463183 (Sanford-Burnham Center for Chemical Genomics, 2010).
The other results are listed elsewhere or left out. Further columns of the screen follow, without active or inactive calls. Compounds called inactive in the main read-out are mostly missing here.

Assay: blockers of oleate-driven lipid droplets in liver cells – imaging, AML12 mouse hepatocytes, single concentration, high-content, confirmation (AID 463183);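 also: cells counted after overnight compound exposure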
Conditions: BODIPY lipid droplet imaging, measured here: cell count, cytotoxicity, at 5.2 µM, droplets induced with 100 µM oleic acid

SMILES | cell count [cells]
Cc1ccc(-n2nc3c(=O)n(C(C)C(=O)NCCc4cccs4)nc(C)c3c2C)cc1 (centres undefined) | 1580
CCN(CC)S(=O)(=O)c1ccc(C(=O)NCc2ccc3[nH]c4c(c3c2)CCCC4)cc1 | 1510
Cc1ccc(Cn2nc(C)c(NC(=O)C3(C)CC3(Br)Br)c2C)cc1 (centres undefined) | 1480
Cc1nc2ccccc2nc(=O)c1NNc1ccccc1 | 1230
O=C(Oc1cccc(/C=N/Nc2nc(Nc3ccccc3)nc(N3CCOCC3)n2)c1)c1ccco1 | 1100
CCOc1ccc(C(=O)NCCNC(=O)c2ccc(OCC)cc2)cc1 | 1650
CCCC(=O)Nc1c2c(nc3ccccc13)N(c1ccccc1)CC2 | 1590
CCOc1ccccc1Nc1nnc(SCC(=O)Nc2nc(-c3ccc(OC)cc3)cs2)s1 | 1580
COc1ccccc1NC1=C(N2CCCCC2)C(=O)c2ccccc2C1=O | 1550
Cc1ccccc1OCc1n(CC(=O)OC2CC(C)CCC2C(C)C)c2ccccc2[n+]1C (centres undefined) | 1610
COc1ccc(C(C(=O)NC(C)(C)C)N(Cc2ccco2)C(=O)CCC(=O)Nc2cc(C)on2)cc1 (centres undefined) | 1540
CN(C1=C(N2CCCCC2)C(=O)c2ccccc2C1=O)c1ccccc1 | 1510
CCCNC1=CC(=O)CC(C)(C)C1 | 1620
Cc1cc(NC(=O)c2sccc2C)n(-c2nc3ccccc3[nH]2)n1 | 1760
O=S1(=O)N=C(Oc2cccc3ccccc23)c2ccccc21 | 1580
CC1=C(/C=N/Nc2ccc([N+](=O)[O-])cc2[N+](=O)[O-])C(C)(C)CCC1 | 1620
COc1ccccc1N1N=C(c2ccc([N+](=O)[O-])cc2)CC1c1ccccc1 (centres undefined) | 1640
Clc1ccccc1CN(Cc1ccco1)Cc1nnnn1C1CCCC1 | 1590
COC(=O)C1=C(C(=O)OC)SC(=C2C(=S)C(C)(C)N(C(=O)C(C)C)c3ccccc32)S1 | 1590
c1ccc(-c2nc(N3CCOCC3)cc(N3CCOCC3)n2)cc1 | 1560

SMILES | cell count [cells]
COc1ccc(C[C@H]2CN3C(=NC[C@H]3Cc3ccccc3)N2CCNC(=O)c2ccc(C)c(Br)c2)cc1 | 1500
CC(C)C(C)(C#N)NC(=O)CSc1nc2scc(-c3ccc(F)cc3)c2c(=O)n1Cc1ccccc1 (centres undefined) | 1620
N/C(Cc1ccc(Cl)cc1Cl)=N\OC(=O)c1ccc(Br)o1 | 1610
COC(=O)c1cc(C)sc1NC(=O)C1CC(=O)NN1Cc1ccccc1 (centres undefined) | 1610
CCOc1cc(C(=O)Nc2ccc(N3CCN(S(C)(=O)=O)CC3)cc2)cc(OCC)c1OCC | 1520
COc1cccc(NC(=O)CN(Cc2ccccc2)S(C)(=O)=O)c1 | 1620
Cc1ccc(N2C(N)=C(C#N)C(c3cc(CN4CCOCC4)cs3)C3=C2CC(C)(C)CC3=O)cc1 (centres undefined) | 1630
CCOc1ccc(C(=O)OCC(=O)Nc2ccc(SC(F)F)cc2)cc1OCC | 1630
Cc1ccc(-n2nnnc2SCC(=O)Nc2ncc(Cc3ccccc3Cl)s2)cc1 | 1580
CCOc1nc(-c2ccncc2)nc2ccccc12 | 1640
COc1ccccc1NS(=O)(=O)c1cc(NC(=O)c2cc3ccccc3oc2=O)ccc1C | 1600
C=CCN(C(=O)c1csnn1)C(C(=O)NCc1ccccc1)c1ccccc1F (centres undefined) | 1520
CCOc1ccc(CCNC(=O)CS(=O)Cc2nc(-c3ccc(OC)cc3)oc2C)cc1OCC (centres undefined) | 1580
CCC(C)(C)NC(=O)C(c1ccc(OC)cc1)N(Cc1cccs1)C(=O)CCC(=O)Nc1cc(C)on1 (centres undefined) | 1590
COc1cc(NC(=O)c2ccco2)c(OC)cc1NC(=O)Nc1ccccc1Cl | 1610
CCOc1ccc(CCNC(=O)COc2cc(=O)n(C)c3ccccc23)cc1OCC | 1640
CCN(CC)c1ccc(/C=C2\CCC(/C=C(\C#N)C(=O)Nc3ccccc3F)=C2N2CCOCC2)cc1 | 1570
CCOc1ccccc1NC(=O)N1CCC(C(=O)c2ccc(F)cc2)CC1 | 1610
COc1ccc(C(C#N)N2CCOCC2)cc1 (centres undefined) | 1670

Part of the list above in order of SMILES length, low to high:
SMILES | cell count [cells]
COc1ccc(C(C#N)N2CCOCC2)cc1 (centres undefined) | 1670
Clc1ccccc1CN(Cc1ccco1)Cc1nnnn1C1CCCC1 | 1590
COc1cc(NC(=O)c2ccco2)c(OC)cc1NC(=O)Nc1ccccc1Cl | 1610
